Paper PMC10008730
These are yes or no findings as the source states them, for the method shown. In cells and extracts the contact can be indirect. Some results given as binding are weak or reduced against the parent protein; the word gives no strength.

By UniProt entry, the sequences of proteins in these tests, tags left out.
UniProt P06733: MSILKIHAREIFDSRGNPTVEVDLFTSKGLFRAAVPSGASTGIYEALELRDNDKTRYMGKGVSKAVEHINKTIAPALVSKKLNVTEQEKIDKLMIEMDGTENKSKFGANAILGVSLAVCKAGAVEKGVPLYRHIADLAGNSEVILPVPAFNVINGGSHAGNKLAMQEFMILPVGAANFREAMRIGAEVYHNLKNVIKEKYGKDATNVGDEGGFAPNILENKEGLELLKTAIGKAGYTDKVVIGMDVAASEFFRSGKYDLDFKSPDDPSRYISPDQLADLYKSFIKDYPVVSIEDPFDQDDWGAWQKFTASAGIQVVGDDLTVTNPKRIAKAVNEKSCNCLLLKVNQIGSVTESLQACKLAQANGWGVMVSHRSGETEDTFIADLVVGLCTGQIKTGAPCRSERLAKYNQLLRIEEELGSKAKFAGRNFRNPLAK
UniProt P26038: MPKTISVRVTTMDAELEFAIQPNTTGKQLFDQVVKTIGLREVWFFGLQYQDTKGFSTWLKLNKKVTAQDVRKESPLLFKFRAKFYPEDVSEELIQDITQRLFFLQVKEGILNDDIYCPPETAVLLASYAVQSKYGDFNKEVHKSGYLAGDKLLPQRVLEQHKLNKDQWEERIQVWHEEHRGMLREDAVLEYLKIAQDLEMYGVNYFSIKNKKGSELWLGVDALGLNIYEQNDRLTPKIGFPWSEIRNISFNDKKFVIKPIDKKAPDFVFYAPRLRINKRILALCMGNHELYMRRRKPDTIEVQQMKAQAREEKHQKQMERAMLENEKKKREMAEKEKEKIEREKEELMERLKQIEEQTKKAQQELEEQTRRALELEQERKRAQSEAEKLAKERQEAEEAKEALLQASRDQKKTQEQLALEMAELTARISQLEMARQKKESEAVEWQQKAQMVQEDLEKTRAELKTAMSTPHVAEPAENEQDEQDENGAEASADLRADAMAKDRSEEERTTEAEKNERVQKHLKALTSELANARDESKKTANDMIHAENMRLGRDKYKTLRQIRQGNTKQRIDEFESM

Assays:
[1] = target: Enolase 1 (ENO1) (human (endogenous in MDA-MB-231)) (UniProt P06733); test: co-IP; MDA-MB-231 cell lysates; reciprocal; samples pretreated with protein A agarose beads and rabbit IgG, overnight immunoprecipitation with beads conjugated with anti-ENO1, anti-MSN or anti-Mtdh antibodies; washed three times with PBS; Western blotting
[2] = target: Moesin (MSN) (human (endogenous in MDA-MB-231)) (UniProt P26038); test: as above

B1: Metadherin (Mtdh) (protein, UniProt Q86UE4 1-582)
chain: MAARSWQDELAQQAEEGSARLREMLSVGLGFLRTELGLDLGLEPKRYPGWVILVGTGALGLLLLFLLGYGWAAACAGARKKRRSPPRKREEAAAVPAAAPDDLALLKNLRSEEQKKKNRKKLSEKPKPNGRTVEVAEGEAVRTPQSVTAKQPPEIDKKNEKSKKNKKKSKSDAKAVQNSSRHDGKEVDEGAWETKISHREKRQQRKRDKVLTDSGSLDSTIPGIENTITVTTEQLTTASFPVGSKKNKGDSHLNVQVSNFKSGKGDSTLQVSSGLNENLTVNGGGWNEKSVKLSSQISAGEEKWNSVSPASAGKRKTEPSAWSQDTGDANTNGKDWGRSWSDRSIFSGIGSTAEPVSQSTTSDYQWDVSRNQPYIDDEWSGLNGLSSADPNSDWNAPAEEWGNWVDEERASLLKSQEPIPDDQKVSDDDKEKGEGALPTGKSKKKKKKKKKQGEDNSTAQDTEELEKEIREDLPVNTSKTRPKQEKAFSLKTISTSDPAEVLVKNSQPIKTLPPATSTEPSVILSKSDSDKSSSQVPPILQETDKSKSNTKQNSVPPSQTKSETSWESPKQIKKKKKARRET
binding [1]: binds | binding [2]: binds
